These are yes or no findings as the source states them, for the method shown. Binding seen in cells or lysates may run through a third protein. Some entries that bind do so weakly or less than the wild type. Sequences can lack the tags named with a protein.
Target: T1, V5-tagged α4 (UniProt P78318)
T1 sequence: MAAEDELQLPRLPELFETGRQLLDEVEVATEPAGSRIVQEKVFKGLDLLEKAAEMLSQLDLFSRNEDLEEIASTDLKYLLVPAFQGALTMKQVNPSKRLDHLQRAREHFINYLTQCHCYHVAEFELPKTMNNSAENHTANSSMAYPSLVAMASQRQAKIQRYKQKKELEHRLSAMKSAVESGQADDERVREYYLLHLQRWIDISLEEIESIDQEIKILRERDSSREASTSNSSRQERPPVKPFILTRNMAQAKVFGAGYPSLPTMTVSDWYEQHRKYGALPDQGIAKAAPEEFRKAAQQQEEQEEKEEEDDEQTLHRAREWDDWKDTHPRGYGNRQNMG
Experiment: co-IP; FLAG-MID1 and α4-V5 co-expressed in HEK293T; lysate in IP-buffer (50 mM Tris pH 7.5, 2.5 mM MgCl2, 100 mM NaCl, 1 mM DTT); precipitated with V5 antibodies and Protein A-Agarose; immunoprecipitates incubated with or without 100 µM resveratrol for 2 hours and washed; blots with FLAG and V5 antibodies

binding: binds
B1: FLAG-tagged MID1 (protein, UniProt O15344-1 1-667)
chain: METLESELTCPICLELFEDPLLLPCAHSLCFNCAHRILVSHCATNESVESITAFQCPTCRHVITLSQRGLDGLKRNVTLQNIIDRFQKASVSGPNSPSETRRERAFDANTMTSAEKVLCQFCDQDPAQDAVKTCVTCEVSYCDECLKATHPNKKPFTGHRLIEPIPDSHIRGLMCLEHEDEKVNMYCVTDDQLICALCKLVGRHRDHQVAALSERYDKLKQNLESNLTNLIKRNTELETLLAKLIQTCQHVEVNASRQEAKLTEECDLLIEIIQQRRQIIGTKIKEGKVMRLRKLAQQIANCKQCIERSASLISQAEHSLKENDHARFLQTAKNITERVSMATASSQVLIPEINLNDTFDTFALDFSREKKLLECLDYLTAPNPPTIREELCTASYDTITVHWTSDDEFSVVSYELQYTIFTGQANVVSLCNSADSWMIVPNIKQNHYTVHGLQSGTKYIFMVKAINQAGSRSSEPGKLKTNSQPFKLDPKSAHRKLKVSHDNLTVERDESSSKKSHTPERFTSQGSYGVAGNVFIDSGRHYWEVVISGSTWYAIGLAYKSAPKHEWIGKNSASWALCRCNNNWVVRHNSKEIPIEPAPHLRRVGILLDYDNGSIAFYDALNSIHLYTFDVAFAQPVCPTFTVWNKCLTIITGLPIPDHLDCTEQLP
